Usually inhibition stands for the relative decrease from the control value, in per cent.

The chains behind the UniProt entries cited, without tags or fusion partners. Where a name states a change or a piece, a line headed by the entry shows the natural chain unless it says otherwise.
UniProt P43351: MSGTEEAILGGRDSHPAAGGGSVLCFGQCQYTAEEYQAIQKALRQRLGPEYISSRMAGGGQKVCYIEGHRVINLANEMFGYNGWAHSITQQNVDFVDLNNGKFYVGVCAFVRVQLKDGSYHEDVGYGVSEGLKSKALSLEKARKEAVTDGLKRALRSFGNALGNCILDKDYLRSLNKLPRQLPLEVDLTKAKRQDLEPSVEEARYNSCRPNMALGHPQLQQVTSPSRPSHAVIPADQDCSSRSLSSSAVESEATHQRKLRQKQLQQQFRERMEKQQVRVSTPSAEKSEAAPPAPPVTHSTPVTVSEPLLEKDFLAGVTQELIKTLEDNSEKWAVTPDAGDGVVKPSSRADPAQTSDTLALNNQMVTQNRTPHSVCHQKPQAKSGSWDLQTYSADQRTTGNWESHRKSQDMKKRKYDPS

Molecules are shown by their SMILES. “And” between values parts separate entries of the source, which are not always exact repeats. Equal values may be shown once. Hit rate of the full screen: of about 1,900 compounds, about 15 (0.8%) were called active.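 The calls were made as follows: active = every replicate shows at least 50% inhibition; inconclusive = mean inhibition at least 50% but some replicate below; inactive = the rest.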 The list shows a part of the results. Residues, ends and D or L forms follow the SMILES beside them. *: point of attachment. Boc = CC(C)(C)OC(=O)*

Here are results for 98 compounds from PubChem BioAssay AID651660 (Broad Institute, 2012).

The assay deals with DNA repair protein RAD52 homolog (Homo sapiens) (UniProt P43351). As to the kind of experiment: RAD52 ssDNA annealing inhibitors, primary screen, biochemical, FRET, single point (AID 651660).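 Also: 0% = median of neutral control wells and 100% = median of positive control wells.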 The settings on record: Recombinant RAD52 ssDNA annealing, FRET fluorescence, 30 min; at 18.7 µM; hits give high values.
As for `O=C(COc1ccccc1)N1CCN(c2ccccc2)CC1`, the inhibition was inactive: -4.76%.
The result for `COc1cc(C(=O)OCCn2c(=O)c3c(ncn3CCN(C)C)n(C)c2=O)cc(OC)c1OC` reads inactive: -2.31%; that for `COc1ccc(CN2CCC(=O)NC2=O)cc1`, inactive: 5.32%; that for `COC(=O)c1cc(OC)c(OC)cc1NC(=O)Nc1ccc(OC)cc1OC`, inactive: -2.68%.
The result for `COCCn1c(SCCOc2ccccc2)nc2ccccc2c1=O` reads inactive: 1.61%; that for `CC(C)(C)OC(=O)N1CCCC1C(=O)NC(Cc1ccccc1)C(=O)O` (stereo not drawn) (Boc-Pro-Phe-OH; configuration not given here), inactive: 0.173%.
With `CC[N+]1(C)CC2CCC(C)(C1)C2(C)C` (stereo not drawn) the figure was inactive: -10.8%; with `CC(CCc1ccccc1)NC(=O)/C=C/c1ccccc1` (stereo not drawn), inactive: -0.182%.
Regarding `COc1cc(Cc2cnc(N)nc2N)cc(OC)c1OC`, the inhibition was inactive: -5.03% and inactive: 1.99%.
With `COc1ccc(CCN2CNc3c(c(=O)n(C)c(=O)n3C)C2)cc1OC` the figure was inactive: -4.7%; with `COc1ccc(CN(CCC(c2ccccc2)c2ccc(OC(C)C)cc2)C(=O)CCl)cc1OC` (stereo not drawn), inactive: 28.8%.
Take `CC(C)OC(=O)C1C(=O)CC(C)(O)C(C(=O)OC(C)C)C1c1cccc(O)c1` (stereo not drawn): the inhibition was inactive: 1.32%.
On to `CO[C@@]1(NC(=O)Cc2cccs2)C(=O)N2C(C(=O)O)=C(COC(N)=O)CS[C@@H]21`, for which the inhibition was inactive: -23.3%.
Regarding `O=C(c1cc2cc(Br)ccc2o1)N1CCCCC1`, the inhibition was inactive: 1.69%.
For the compound `O=C(O)CCSCCC(=O)O`, the inhibition was inactive: -7.85%.
The result for `CC(C)Oc1ccc(C(CC(=O)O)c2ccc(F)cc2)cc1` (stereo not drawn) reads inactive: -7.3%; that for `O=C(c1ccco1)N(CCC(c1ccccc1)c1ccco1)Cc1ccco1` (stereo not drawn), inactive: -46.1%; that for `COc1ccc2oc(=O)c(C(=O)N3CCN(c4ccccc4)CC3)cc2c1`, inactive: -1.5%.
With `CCOc1ccc2ccccc2c1CNc1nnnn1C` the figure was inactive: -2.89%; with `Cc1ccc2ncnc(NCCCCCC(=O)O)c2c1`, inactive: 3.28%; with `Cc1ccsc1C1NC(=O)c2ccccc2N1` (stereo not drawn), inactive: 1.49%.
Turning to `COc1ccc(OC(C)C(=O)Nc2ccc([N+](=O)[O-])cc2)cc1` (stereo not drawn), the inhibition was inactive: -3.9%.
The result for `O=C(NCCCCCc1nc2ccccc2[nH]1)c1ccccc1Cl` reads inactive: -0.634%; that for `O=C(Nc1cccc(-c2nc3ncccc3o2)c1)c1ccccc1`, inactive: 2.68%.
With `CCCCOC(=O)c1ccc(N)cc1` the figure was inactive: -1.79%.
With `O=C(CS(=O)(=O)Cc1ccccc1)NCc1ccc2c(c1)OCO2` the figure was inactive: 1.08%; with `Cc1ccc(-n2ncc3c(Nc4cccc(C(=O)O)c4)ncnc32)cc1`, inactive: -4.75%; with `NCCOc1ccccc1OCCN`, inactive: 2.09%.
On to `Cc1ccc2[nH]c3c(c2c1)CN(C(=O)CN1CCSCC1)CC3`, for which the inhibition was inactive: -1.24%.
Regarding `COc1cc(OC)cc(C(C)=O)c1`, the inhibition was inactive: -3.64%.
With `Cc1ccc(/C=N/Nc2nc(C(C)(C)C)cs2)o1` the figure was inactive: -5.64%; with `CC(=O)c1cccc2c(O)c(C3=Nc4ccccc4C3=O)[nH]c12`, inactive: -6.23%; with `CC(CCCC(C)(C)O)NC(=O)c1ccc(OC2CCN(C(=O)C3CC3)CC2)cc1` (stereo not drawn), inactive: 2.1%.
The result for `CC(C)OC(=O)C1C2C=CC3(CN(CC4CCCO4)C(=O)C13)O2` (stereo not drawn) reads inactive: -7.36%; that for `COc1cc2c(cc1OC)C(c1ccc(-c3cc(Cl)ccc3Cl)o1)=NCC2`, inactive: -29.8%; that for `CC(C)COCC(CN(Cc1ccccc1)c1ccccc1)N1CCCC1` (stereo not drawn), inactive: 20.9%.
With `Oc1ccc(Cl)cc1Cc1cc(Cl)ccc1O` the figure was inactive: 2.67%; with `COc1ccc(OC(C)C(=O)Nc2ccccc2F)cc1` (stereo not drawn), inactive: -11.2%; with `O=C(Nc1nc2ccccc2s1)c1ccc(F)cc1`, inactive: 4.49%.
On to `N#C/C(C(N)=O)=c1/ccc2c(c1)N1C3=C(CCCC3)CC3CCCCC31N=2` (stereo not drawn), for which the inhibition is inactive: -3.13%.
With `CCn1c2ccccc2c2cc(CC(N)=O)ccc21` the figure was inactive: 0.948%.
The result for `CCn1c(/C=C/c2ccccc2)nc2ccccc2c1=O` reads inactive: -9.41%; that for `CN1CCN(C2=Nc3cc(Cl)ccc3Nc3ccccc32)CC1`, inactive: 11.5%; that for `Cc1cccc(-n2c(Cc3ccccc3)n[nH]c2=S)c1`, inactive: -6.53%.
Regarding `O[C@@H](CNC[C@H](O)c1ccccc1)c1ccccc1`, the inhibition is inactive: -5.65%.
The result for `O=C(Nc1cccc(Cl)c1)N1CCN2C(=O)c3ccccc3C12c1ccccc1` (stereo not drawn) reads inactive: 10%; that for `Cc1nc2ccccc2n1CC(=O)NC1CCCC1`, inactive: -8.58%; that for `CC(C)(C)c1csc(N/N=C/c2cccnc2)n1`, inactive: 10.6%.
With `NC12CC3CC(CC(C3)C1)C2` the figure was inactive: 10.2%; with `Cc1cc(Cl)cc2c1NC(=O)[C@]21[C@@H]2C(=O)N(Cc3ccccc3)C(=O)[C@@H]2[C@@H]2CCCN21`, inactive: -18.1%.
With `N/C(=N\OC(=O)CCCOc1ccc(Cl)cc1Cl)c1ccccn1` the figure was inactive: 0.236%.
Consider `Cc1ccc(-c2nn(-c3cccc(F)c3)cc2CN2CCN(c3ccccn3)CC2)o1`, for which the inhibition is inactive: -31.4%.
With `COc1cc(C2Nc3ccccc3C(=O)N2c2ccccc2)ccc1O` (stereo not drawn) the figure was inactive: -15.2%; with `Cc1ccc2nc(N=C(N)N)nc(C)c2c1`, active: 66.7%.
The result for `COc1cc(C(=O)N/C(=C\c2cn(C)c3ccccc23)C(=O)NCCCO)cc(OC)c1OC` reads inactive: 2.3%; that for `CCn1ccnc1CN(C)Cc1cn(-c2cccc(C)c2)nc1-c1cccc(F)c1`, inactive: 48.3%; that for `c1cnc2c(c1)ccc1cccnc12`, inactive: -16.8%.
Consider `CC1(C)CC(=O)c2cc(O)ccc2O1`, for which the inhibition was inactive: 0.351%.
Turning to `CCC(NC(C)C)C(O)c1ccc(O)c(O)c1` (stereo not drawn), the inhibition was inactive: -2.83%.
With `CCOc1ccc(OCCSc2nc3ccccc3[nH]2)cc1` the figure was inactive: 1.75%.
The result for `CC(C)C1CC(CCNCc2ccc(N(C)C)cc2)(c2ccccc2)CCO1` (stereo not drawn) reads inactive: 37.8%; that for `COc1ccccc1-c1c(C(F)(F)F)oc2cc(OC(=O)c3ccc([N+](=O)[O-])cc3)ccc2c1=O`, inactive: -10.4%.
With `COc1cc(OC)c(C(=O)CCCN2CCCC2)c(OC)c1` the figure was inactive: -3.52%; with `CCN1CCn2c3c(c4cc(Cl)ccc42)CCCC31` (stereo not drawn), inactive: -6.95%; with `Cc1ccc2c(CC(=O)O)coc2c1`, inactive: -14.4%.
For the compound `CCOC(=O)NN1C(=O)c2ccccc2NC1c1ccc(OC)c(OC)c1` (stereo not drawn), the inhibition was inactive: 7.01%.
The result for `O=C1C=CC(=O)C(C2=C3C(=O)N(CCc4ccccc4)CC(=O)N3CCC2)=C1` reads inactive: -6.11%; that for `C[C@]12C=CC(=O)C=C1CCC1C3CC[C@](O)(C(=O)CO)[C@@]3(C)CC3OC312` (stereo partly drawn), inactive: -3.11%; that for `COc1cc2c(cc1OC)-c1cc(OCc3ccccc3Cl)nc(=O)n1CC2`, inactive: -10.9%.
With `COc1ccccc1N1CCN(CC(O)COc2cccc3ccccc23)CC1` (stereo not drawn), the inhibition was inactive: 9.55%.
The result for `CN1CCC(=C2c3ccccc3CC(=O)c3sccc32)CC1` reads inactive: -4.37%; that for `COc1ccc(NC(=S)N2CCN(CCN3C(=O)c4cccc5cccc(c45)C3=O)CC2)cc1`, inactive: 17.9%; that for `OC(CCCN1CCC(O)(c2ccc(Cl)cc2)CC1)c1ccc(F)cc1` (stereo not drawn), inactive: -8.05%.
With `COc1ccc(-c2c(NC(=O)c3ccco3)n(C)c3ccccc3c2=O)cc1` the figure was inactive: -17.5%.
On to `Clc1cc(-c2ccc(/C=N/n3cnnc3)o2)ccc1Br`, for which the inhibition was inactive: -281%.
With `CSCCC(NC(C)=O)C(=O)Oc1ccc2c3c(c(=O)oc2c1)CCCC3` (stereo not drawn) the figure was inactive: -4.83%.
The result for `CCOc1ccc(N2C(=O)CC(NCCNc3ccc([N+](=O)[O-])cn3)C2=O)cc1` (stereo not drawn) reads inactive: -4.24%; that for `Cc1oc(/C=N/NC(=O)CC2(C)OCCO2)cc1Br`, inactive: -12.8%; that for `Cn1c(=S)n(C)c2ccccc21`, inactive: -9.01%.
For `COc1ccc(C(C)=O)c2c1OCCO2`, the inhibition is inactive: 1.15%.
`CCC(=O)c1ccc(O)cc1`: the inhibition was inactive: -2.03%.
The result for `C=CCC1(Cl)C(=O)C(Cl)=C(N2CCOCC2)C1(OC)OC` (stereo not drawn) reads inactive: 3.46%.
The result for `Cc1cc(C)cc(Nc2nc3c([nH]2)c(=O)n(C)c(=O)n3C)c1` reads inactive: -0.06%.
The result for `CC(C)(C)C(=O)NCCCNc1ccc([N+](=O)[O-])cc1` reads inactive: -3.87%; that for `CN1CCCN=C1COC(=O)C(O)(c1ccccc1)C1CCCCC1` (stereo not drawn), inactive: -2.24%.
Consider `O=Cc1ccc(O)c(O)c1`, for which the inhibition is inactive: -7.36%.
With `C[C@H](NC(=O)NCCc1ccccc1)C(=O)O` the figure was inactive: -11.4%; with `COC(=O)c1[nH]c2ccccc2c1NC(=O)CN1CCN(C/C=C/c2ccccc2)CC1`, inactive: 9.39%.
The result for `COc1ccc(-c2cc(=O)oc3c(C)c(O)c(CN(C)C)cc23)cc1` reads inactive: -25.3%.
The result for `COC(=O)c1cc(-c2c(C)oc3cc(OC)ccc3c2=O)c(C)o1` reads inactive: 2.67%; that for `O=C1CCCC(=O)C1=Cc1c[nH]c2ccccc12`, inactive: -7.11%.
Regarding `CC(=O)O[C@H]1CSC[C@H]1NC(=O)c1ccccc1`, the inhibition was inactive: -6.56%.
With `CC1=C/C(=N\N=C2\NC(=O)C(CC(=O)Nc3ccccc3F)S2)CC(C)(C)C1` (stereo not drawn), the inhibition is inactive: -3.25%.
The result for `COc1ccc(C(=O)Nc2ncc3c(n2)CC(C)CC3=O)cc1` (stereo not drawn) reads inactive: -7.8%; that for `CC(=O)Oc1ccc2c(=O)c(Oc3ccccc3[N+](=O)[O-])coc2c1`, inactive: -8.07%.
With `C=C(C)c1nc2cc(OC)c(OC)cc2c(=O)o1` the figure was inactive: 2.61%; with `CCOC(=O)[C@H](CCc1ccccc1)N[C@@H](C)C(=O)N1CCC[C@H]1C(=O)O`, inactive: -1.23%.
With `O=C(Nc1ccc(N2CCOCC2)cc1)c1ccc(-c2ccccc2[N+](=O)[O-])o1` the figure was inactive: -3.44%.
